Data source: PubChem BioAssay AID504744 (Drosophila RNAi Screening Center, 2011)
The deposit covers about 23,000 reagents; shown is a random part of those with a known target gene and a result. In the full data, 98 (0.43%) got an active call. 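Only hit calls are given; the phospho-dAkt signals, z-scores and hit direction were not deposited.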 The numbers tell different reagents against one gene apart. A plus sign joins genes that one reagent is predicted to hit.

- Test: 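Find genes whose loss alters insulin-driven dAkt phosphorylation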 (primary screen)
- System: Drosophila Kc167 cells
- Knock-down reagent: long dsRNA against Drosophila genes, 250 ng dsRNA per well of a 384-well plate
- Timing: 3 days of knock-down, then overnight serum-free starvation before stimulation
- Treatment: bovine insulin at 387 nM for 10 minutes after 12 h without serum
- Read-out: 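Per-well phospho-dAkt level from an in-cell fluorescent antibody stain, divided by a DNA-dye signal; log2 residuals turned into z-scores that take cell number into account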
- Rule for the call: 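Under insulin, a gene counts as a hit if the average z-score of two replicates lies above 2.5 or below -2.5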

no.	predicted target	dsRNA no.	outcome
1	CG15203 (GeneID 32038)	1	inactive
2	Ir56c (GeneID 37251)	1	inactive
3	tws (GeneID 47877)	1	inactive
4	tws (GeneID 47877)	2	inactive
5	eIF3h (GeneID 45682)	1	inactive
6	CG7330 (GeneID 40007)	1	inactive
7	CG7330 (GeneID 40007)	2	inactive
8	CG12679 (GeneID 33031)	1	inactive
9	CG4872 (GeneID 32676)	1	inactive
10	Nach (GeneID 36864)	1	inactive
11	CG1910 (GeneID 43741)	1	inactive
12	VhaSFD (GeneID 34997)	1	inactive
13	Sps2 (GeneID 34397)	1	inactive
14	CG5466 (GeneID 42444)	1	inactive
15	CG31058 (retired record) (GeneID 43320)	1	inactive
16	RIOK1 (GeneID 39309)	1	inactive
17	CG4287 (GeneID 41939)	1	inactive
18	eEF1gamma (GeneID 44791)	1	inactive
19	yellow-b (GeneID 35005)	1	inactive
20	CG15143 (GeneID 35062)	1	inactive
21	CNT1 (GeneID 35915)	1	inactive
22	CG13407 (GeneID 42599)	1	inactive
23	CG31493 (GeneID 318765)	1	inactive
24	CG30447 (GeneID 246621)	1	inactive
25	Try29F (GeneID 34226)	1	inactive
26	dl (GeneID 35047)	1	inactive
27	dl (GeneID 35047)	2	inactive
28	CG3649 (GeneID 37626)	1	inactive
29	GstE7 (GeneID 37112)	1	inactive
30	Arf6 (GeneID 36699)	1	inactive
31	Ulp1 (GeneID 32910)	1	inactive
32	CG42749 (GeneID 31438)	1	inactive
33	CG42749 (GeneID 31438)	2	inactive
34	CG5262 (GeneID 40258)	1	inactive
35	CG16772 (GeneID 35281)	1	inactive
36	Ktch (GeneID 43681)	1	inactive
37	glu (GeneID 35001)	1	inactive
38	CG7742 (GeneID 33750)	1	inactive
39	wmd (GeneID 37727)	1	inactive
40	Rab30 (GeneID 33988)	1	inactive
41	Rad9 (GeneID 40054)	1	inactive
42	drl (GeneID 44355)	1	inactive
43	Jra (GeneID 36057)	1	inactive
44	CG34002 (GeneID 3885644)	1	inactive
45	CG34002 (GeneID 3885644)	2	inactive
46	Ipp (GeneID 41701)	1	inactive
47	beat-Vc (GeneID 41575)	1	inactive
48	beat-Vc (GeneID 41575)	2	inactive
49	CG10565 (GeneID 40332)	1	inactive
50	robl62A (GeneID 38170)	1	inactive
51	CG13794 (GeneID 34048)	1	inactive
52	CG5079 (GeneID 43089)	1	inactive

Targets listed so far whose gene name starts with B or b:
predicted target	dsRNA no.	outcome
beat-Vc (GeneID 41575)	1	inactive
beat-Vc (GeneID 41575)	2	inactive

Continued:
no.	predicted target	dsRNA no.	outcome
53	CG8301 (GeneID 41160)	1	inactive
54	CG32591 (GeneID 318104)	1	inactive
55	jdp (GeneID 43630)	1	inactive
56	MED1 (GeneID 40403)	1	inactive
57	nAChRbeta2 (GeneID 42920)	1	inactive
58	Traf4 (GeneID 33638)	1	inactive
59	Traf4 (GeneID 33638)	2	inactive
60	MED8 (GeneID 37305)	1	inactive
61	CG30287 (GeneID 246530)	1	inactive
62	sens-2 (GeneID 33957)	1	inactive
63	sens-2 (GeneID 33957)	2	inactive
64	sens-2 (GeneID 33957)	3	inactive
65	CG6927 (GeneID 31419)	1	inactive
66	Obp47a (GeneID 36162)	1	inactive
67	Or59b (GeneID 37715)	1	inactive
68	Past1 (GeneID 41569)	1	inactive
69	CG13168 (GeneID 36327)	1	inactive
70	CG17618 (retired record) + CG45049	1	inactive
71	CG17618 (retired record) + CG45049	2	inactive
72	lmgA + lmgB	1	inactive
73	dsh (GeneID 32078)	1	inactive
74	CG14770 (GeneID 31085)	1	inactive
75	Xpd (GeneID 37414)	1	inactive
76	kto (GeneID 44830)	1	inactive
77	Sec61alpha (GeneID 33905)	1	inactive
78	CG32821 (retired record) (GeneID 318229)	1	inactive
79	CG15642 (GeneID 32476)	1	inactive
80	CG1603 (GeneID 35683)	1	inactive
81	CG31805 (GeneID 318952)	1	inactive
82	CG30020 (GeneID 36156)	1	inactive
83	CG30020 (GeneID 36156)	2	inactive
84	CG6106 (GeneID 32816)	1	inactive
85	CG12343 (GeneID 36143)	1	inactive
86	Cyp313a3 (GeneID 41488)	1	inactive
87	Pfdn1 (GeneID 33857)	1	inactive
88	CG42238 (GeneID 7354398)	1	inactive
89	CG33099 (GeneID 326254)	1	inactive
90	Ser12 (GeneID 33406)	1	inactive
91	Rbcn-3A (GeneID 31557)	1	inactive
92	PGAP3 (GeneID 35570)	1	inactive
93	S (GeneID 33281)	1	inactive
94	prd (GeneID 34629)	1	inactive
95	Sld5 (GeneID 43166)	1	inactive
96	Appl (GeneID 31002)	1	inactive
97	CG32137 (GeneID 39537)	1	inactive
98	CG32137 (GeneID 39537)	2	inactive
99	fws (GeneID 35054)	1	inactive
100	Naa60 (GeneID 39142)	1	inactive
101	CG13050 (GeneID 39787)	1	inactive
102	CG31926 (GeneID 326174)	1	inactive
103	Myb (GeneID 32543)	1	inactive
104	CG4409 (GeneID 36840)	1	inactive
105	Ist1 (GeneID 38750)	1	inactive
106	Prosbeta4R1 (GeneID 33449)	1	inactive
107	CG4686 (GeneID 42361)	1	inactive
